# Laboratory results taken from the supplement of paper PMC3334620.
# The full ranking holds about 33,000 sequences; the median of “E-score (-0.5 to 0.5)” is about -0.0014, and the highest 2% start at about 0.25. The list shows a part of the results.
# Target: T1, Cad1 (UniProt P24813)
# T1 sequence: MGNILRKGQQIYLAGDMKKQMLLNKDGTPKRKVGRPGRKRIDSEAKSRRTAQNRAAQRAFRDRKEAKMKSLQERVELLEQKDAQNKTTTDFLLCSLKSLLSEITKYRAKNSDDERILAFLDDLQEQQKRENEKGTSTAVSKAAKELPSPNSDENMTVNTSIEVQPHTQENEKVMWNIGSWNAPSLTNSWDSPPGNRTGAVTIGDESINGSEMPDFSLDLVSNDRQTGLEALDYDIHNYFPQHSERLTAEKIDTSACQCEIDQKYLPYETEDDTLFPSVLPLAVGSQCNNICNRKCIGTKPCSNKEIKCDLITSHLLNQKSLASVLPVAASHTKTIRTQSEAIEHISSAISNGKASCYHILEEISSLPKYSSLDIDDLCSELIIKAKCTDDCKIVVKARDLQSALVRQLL
# Test: PBM E-score (8-mer binding enrichment) (E-score (-0.5 to 0.5)); higher = stronger / more preferred TF binding
# Settings: protein concentration: 100 nM; construct: GST-full length
# Protocol: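 Universal 'all 10-mer' protein binding microarrays (Agilent AMADID 015681) probed with GST-tagged S. cerevisiae TFs (full-length or DBD) made by in vitro transcription/translation (PURExpress), about 100-200 nM. Bound TF was detected with fluorescent anti-GST. Each ungapped 8-mer (which stands for itself and its reverse complement) is scored by the PBM enrichment score (E-score), a modified Wilcoxon-Mann-Whitney statistic from -0.5 to +0.5, computed with the Universal PBM Analysis Suite. Scale: above 0.35 generally sequence-specific binding.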
row,Sequence,PBM E-score
1,GCAGCTAA,0.0749
2,GAAATTAC,0.234
3,CGCAGTAA,0.0873
4,GCATCGTA,-0.0986
5,AGTTCGGG,0.041
6,GCAGTCTA,0.0496
7,GACCACTC,-0.0521
8,AGCTCGCA,0.0143
9,TACGATAA,0.149
10,CAAATTTC,0.201
11,AACTCGCT,0.156
12,ACATACCG,-0.0837
13,AGCATCAT,0.135
14,GCCTGATA,-0.0711
15,AAAGGAAG,-0.0972
16,CTCGCGAA,0.0936
17,CTAGGCAC,-0.0229
18,GTACCTCA,-0.0932
19,GACACGCC,-0.103
20,CTCAGTCA,-0.0763
21,AGCTGGTA,-0.151
22,GGAAATTA,0.208
23,CTGACTGC,-0.0899
24,GTGGAGGA,-0.159
25,ACTAAGGA,0.14

row,Sequence,PBM E-score
1,TACTCAGA,0.105
2,ATTAGAGC,0.041
3,ACATCGAT,0.189
4,CCGTCAAA,-0.0889
5,GATTTGAA,0.16
6,TCGCCCGA,-0.051
7,CGGATAGC,0.0973
8,GAGCCAGA,-0.0362
9,ACAGTCTG,-0.0665
10,GAGAGCCC,-0.458
11,CACTAGCA,-0.122
12,AGATACGA,0.0914
13,ATGGGCTG,-0.0873
14,GTAACGAC,-0.0326
15,CATTCTTC,0.0436
16,TACCAAAA,0.0279
17,CAGCCCAA,-0.114
18,GGCCACGA,0.0126
19,CCCACTGC,-0.0251
20,AGTGGCGG,-0.014
21,CGAACCGA,0.262
22,TAGCTCCA,-0.0928
23,TCGTGCCA,-0.0291
24,TCGGCCAA,0.0664
25,CGAATGGC,0.0635

row,Sequence,PBM E-score
1,CAGGGACG,-0.0337
2,CCACTTTC,0.0286
3,ACAGGCCC,-0.35
4,AACTAAAT,-0.00484
5,AATCACCA,0.17
6,CCTCTTCA,-0.107
7,ATAAGTAA,0.192
8,GTGAGCCA,-0.0702
9,ATAAATAA,0.239
10,CAATGGAA,0.117
11,AACTTGCA,-0.0362
12,GCCCCTGA,-0.0911
13,ACGGTTTG,0.0498
14,CGGGATCC,0.176
15,CCGTGAAA,0.175
16,CTTTACTA,0.213
17,ACATCATA,0.105
18,CCATCCCC,-0.137
19,CACATGCG,0.0999
20,AATTAGCC,0.13
21,AGATTATG,0.101
22,AGCGTGGG,-0.113
23,CCGGTCCC,-0.204
24,ATTACGAG,0.0536
25,CTCTTAGA,0.0333

# Rewritten with bars between the fields: part of the list above
row | Sequence | PBM E-score
4 | GCATCGTA | -0.0986
24 | GTGGAGGA | -0.159
3 | ACATCGAT | 0.189
8 | GAGCCAGA | -0.0362
13 | ATGGGCTG | -0.0873
25 | CGAATGGC | 0.0635

# More records follow:

row,Sequence,PBM E-score
1,TCGTCACA,0.112
2,AGAAAAAC,-0.0294
3,ATCTCTGG,0.0345
4,CGCTGGTC,-0.211
5,AGGTGTAA,-0.0466
6,ATCGCGAT,0.237
7,TGGTGACA,0.0209
8,CCAGACAG,-0.0905
9,GAGGCGGA,-0.168
10,CCAACAGC,-0.0482
11,ATCTGGCG,0.107
12,ACTCGTAA,0.292
13,CCTGTTAG,-0.008
14,CATATATC,0.141
15,AAGTACCC,-0.201
16,AAGGTACT,0.0522
17,ACTATCAC,-0.0123
18,GGGGCCGA,-0.256
19,TAGATCCA,-0.0177
20,CTGTGGCA,-0.0544
21,CATAGTAA,0.141
22,CCTTTGAA,-0.16
23,ACGGGGGC,-0.42
24,CGTGATTC,-0.021
25,TCGCCACA,0.0186

row,Sequence,PBM E-score
1,CGCCACAA,0.0423
2,ACTCCCCT,-0.29
3,CAAAGTGC,-0.167
4,GATCCTAC,0.00192
5,CCAACGGC,-0.123
6,CGGCGGTA,0.107
7,GGGAAGGA,-0.153
8,GTTATAGA,0.0936
9,AAAAAATG,0.216
10,ATGGAGCG,0.0392
11,ATCTAACA,0.0581
12,GGAGTCCC,-0.181
13,CCTATACG,-0.244
14,TAGTTCAA,0.0165
15,AGTGGTCG,-0.0799
16,TAGTGAGA,-0.0853
17,AACTCACG,0.108
18,CGTGAATA,0.144
19,GACCTTAC,-0.0272
20,ATTGGCGG,0.00921
21,ACCCCAAG,-0.189
22,ATCGGACA,0.00529
23,CGGAAGCA,0.201
24,CCCGGTGC,-0.223
25,CCCTATAC,-0.0183

row,Sequence,PBM E-score
1,AACGTCCA,0.0376
2,AAGATCTA,-0.171
3,CGGATTAG,0.126
4,TCCGCAAA,0.106
5,GCGGCTGA,-0.0597
6,GCTGGACA,-0.103
7,AAAAAACC,0.0141
8,AGAGCCAA,-0.156
9,TGGGACCA,-0.0597
10,AAGTGCCG,0.0714
11,CTAAGACC,-0.0662
12,CTCCATAA,-0.17
13,AAAACCGG,0.131
14,AGTGCCAC,-0.156
15,AAGCTGGG,-0.2
16,AGATGTCC,-0.0414
17,CAGGAAGC,-0.0352
18,GCGTGCAA,0.001
19,ACTAAATG,0.0542
20,GAGTAAAA,0.0611
21,ACCAAGAC,0.144
22,ATCCGAAA,0.0252
23,GGCAGGAA,-0.0227
24,GTACGGTA,0.0291
25,CATATGAG,0.19

row,Sequence,PBM E-score
1,TAGCCTAA,-0.0715
2,GTAGGGAC,-0.158
3,ACTGGTGC,-0.156
4,GAGGCGGC,-0.051
5,GCCTCCTA,-0.116
6,TCAATTCA,-0.0699
7,GGGCGAGA,-0.202
8,CCCTTCCC,-0.151
9,CGCTGAAA,-0.011
10,AGCTATAT,0.101
11,AGTCTCCC,-0.146
12,AGCGGACG,0.0985
13,CTCTTCGA,-0.055
14,CCGCGAGG,0.0994
15,CCTAGGGA,-0.0777
16,GAGAATGC,0.104
17,CCCCAAGC,0.0235
18,CGGCCGAG,0.0359
19,TCAATAGA,-0.0707
20,ACAACGCC,-0.0203
21,TACATAAA,0.111
22,GAGCGCCC,-0.164
